# According to PubChem BioAssay AID977628 (Broad Institute, 2014):
# Among all 1,900 compounds or so, fewer than 10 were called active. The inconclusive results got no clear call from the source; some entries with a clear call stand among them for comparison.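 How the source made its calls: active means compound lowering the normal-ribosome reporter at least twice as much as the humanized-ribosome reporter, growth loss under a set limit; inconclusive means no clear call, values can overlap the other calls; inactive means the rest.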
# Test: growth of wild-type and h24-humanized E. coli strains – h24 mutant RFP vs wild-type GFP, cherry-pick, dose response (AID 977628)
# Conditions: E. coli WT GFP strain growth, fluorescence, 24 h; at 50 µM (top of the series) unless noted
row,Compound,"activity change, negative = inhibition"
1,COc1cccc(CC(=O)OC(C)C(=O)NCc2ccc3c(c2)OCO3)c1 (stereo unspecified),inconclusive: -22.2
2,O=C(c1ccc2c(c1)CCN2S(=O)(=O)c1ccccc1)N1CCN(c2ccccc2)CC1,inconclusive: -34.3
3,COc1ccccc1N(C)S(=O)(=O)c1ccc(C(=O)NC(C)c2ccccc2)cc1 (stereo unspecified),inconclusive: -25.3
4,CC(=O)c1ccc(-c2cccc([C@H]3[C@@H]4C=CC[C@@H](C)[C@@H]4C(=O)N3Cc3ccccc3)c2)cc1,inactive: -8.41
5,C[C@H](CO)N1C[C@H](C)[C@@H](CN(C)C)OCCCC[C@H](C)Oc2ccc(NC(=O)Nc3cccc4ccccc34)cc2C1=O,inconclusive: 8.28
6,O=C(NCCc1ccc(Cl)cc1)c1ccc2nc[nH]c2c1,inconclusive: -17.6
7,C[C@@H]1CCCCO[C@@H](CN(C)C(=O)c2ccccc2)[C@H](C)CN([C@@H](C)CO)C(=O)c2cc(NC(=O)Cc3ccccc3)ccc2O1,inconclusive: 6.57
8,Cc1ccc(Nc2cc(C(=O)NCCCN3CCOCC3)c3ccccc3n2)cc1C,inconclusive: -9.33
9,C[C@@H]1CCCCO[C@@H](CN(C)C)[C@@H](C)CN([C@@H](C)CO)C(=O)c2cc(NC(=O)Nc3cccc4ccccc34)ccc2O1,inconclusive: 9.72 [at 26 µM]
10,CCOC(=O)c1cc(-c2ccc(OC)cc2)n[nH]1,inactive: -13
11,COc1ccc(OC)c(CN2CCCC(C(=O)c3ccccc3SC)C2)c1 (stereo unspecified),inconclusive: -30.1
12,Cc1ccc(C2(c3noc(CN(C)Cc4cccnc4)n3)CCCC2)cc1,inconclusive: -10.7
13,COC(=O)c1ccc2nc(-c3ccco3)c(Cc3ccc(C)cc3)n2c1,inconclusive: -18.1
14,CC(C)[C@H](NC(=O)c1ccc([N+](=O)[O-])cc1Cl)C(=O)N1CCN(C/C=C/c2ccccc2)CC1,inconclusive: -21.4
15,CC1CCC(C(C)C)C(OCC(O)CN2CCCC(C)C2)C1 (stereo unspecified),inconclusive: -19.2
16,CCOC(=O)c1c(C)[nH]c(C)c1S(=O)(=O)NCCN1CCN(c2ccccc2F)CC1,inactive: -15.8
17,CC(=O)CSc1ccc(-c2nc3ccccc3[nH]2)cn1,inactive: -1.67
18,Cc1occc1C(=O)Nc1ccc2c(c1)CCC2,inconclusive: -14.5
19,CC(=O)c1cccc(NC(=O)C2CCCN(S(C)(=O)=O)C2)c1 (stereo unspecified),inactive: 1.1
20,O=C1CCCN1c1ccc([N+](=O)[O-])cc1,inconclusive: -15.3
21,Cc1cccc(OCc2nc(C#N)c(N3CCCC3)o2)c1,inactive: 3.66
22,CCc1nnc(NS(=O)(=O)c2ccc(NC(=O)c3cccc(Cl)c3)cc2)s1,inconclusive: -22.7
23,Cc1ccccc1NC(=O)c1ccccc1N(C)S(=O)(=O)c1ccccc1,inconclusive: -17.1
24,COCC(=O)N1[C@@H]2CN(C(=O)Nc3ccccc3F)c3ccccc3[C@@H]2[C@@H]1CO,inconclusive: 1.07
25,Cc1nc(N2CCC(C)CC2)c(C#N)c(C)c1[N+](=O)[O-],inactive: -9.56
26,COc1cccc2c1Oc1cc([N+](=O)[O-])cc(N(C)C(C)=O)c1C=C2,inconclusive: -23.5

row,Compound,"activity change, negative = inhibition"
1,CN1CCN(C(=O)C[C@H]2CC[C@H]3[C@@H](COC[C@H](O)CN3C(=O)Nc3ccc(Cl)cc3)O2)CC1,inconclusive: -75.3
2,COc1cc(-c2cc3nc(NCCc4ccncc4)ccn3n2)cc(OC)c1OC,inconclusive: -24
3,CC1CCC2(CC1)SCC(=O)N2c1ccc(F)cc1 (stereo unspecified),inactive: -8.17
4,O=S(=O)(NC1c2cccc3cccc(c23)C1Sc1ncccn1)c1ccccc1 (stereo unspecified),inconclusive: -17.4
5,Clc1ccc(-c2cn(-c3ccccc3)c3[n+]2CCS3)cc1,inconclusive: -8.81
6,COc1cccc(-c2ccc(SCc3ccccn3)nn2)c1,inconclusive: -19.1
7,COC(=O)C1CCN(C(=O)c2ccc(OC)c(S(=O)(=O)N3CCCc4ccccc43)c2)CC1,inconclusive: -17.2
8,CC(C)(C)c1ccc(-c2noc(CCC(=O)NCc3ccco3)n2)cc1,inconclusive: -6.71
9,CC(C)C[C@H]1COc2cc(Br)ccc2S(=O)(=O)N1,inconclusive: -17.8
10,Cc1cc(Br)c2nc(-c3ccc(Cl)cc3)c(Cc3cccc(Cl)c3)n2c1,inconclusive: -11.1
11,CN(C(=O)c1ccc(F)cc1)c1ccc(OCC(=O)Nc2ccccc2C(=O)O)cc1,inconclusive: -6.68
12,COc1ccc(CC(=O)Nc2cc(S(=O)(=O)Nc3ccc(OC)cc3)ccc2OC)cc1,inactive: -16.8
13,CC(C)N1CC2(CC(c3ccccc3C(F)(F)F)=NO2)CN1C(=O)c1ccco1 (stereo unspecified),inconclusive: -8.39
14,CCOc1cccc(-c2cc(-c3n[nH]c(=S)n3CC)c3ccccc3n2)c1,inconclusive: -17.4
15,COc1cccc(C(=O)C2CCCN(C/C=C/c3ccccc3OC)C2)c1 (stereo unspecified),inconclusive: -17.1
16,CSc1nc2ccc(NS(=O)(=O)c3ccc([N+](=O)[O-])cc3)cc2s1,inactive: -7.88
17,COc1ccc(OC)c(NC(=O)COc2ccc(S(=O)(=O)NC(C)C)cc2)c1,inactive: -11.6
18,O=C(Cc1ccccc1Cl)Nc1nc2ccccc2[nH]1,inconclusive: -13.6
19,Cc1cc(NC(=O)CCCn2cc([N+](=O)[O-])cn2)n(Cc2ccc(F)cc2)n1,inconclusive: -6.47
20,COc1ccc(C(C)=O)cc1COc1ccc(Cl)c(C)c1,inconclusive: 1.42
21,C[C@@H]1CCCCO[C@H](CN(C)C(=O)CCCN(C)C)[C@@H](C)CN([C@@H](C)CO)C(=O)c2cc(NC(=O)Nc3cccc4ccccc34)ccc2O1,inconclusive: -0.174
22,Fc1ccccc1C1CCN(Cc2nc(COc3ccccc3)no2)C1 (stereo unspecified),inactive: -2.02
23,COC(=O)c1c(C)oc(C)c1S(=O)(=O)Nc1ccc(C(C)C)cc1,inconclusive: -13.4
24,O=C(NCc1ccc2c(c1)OCO2)C1CCC(=O)N1C1CCCCC1 (stereo unspecified),inconclusive: -1.21
25,COc1ccc(C(=O)N2C[C@H]3[C@@H](c4ccccc42)[C@@H](CO)N3Cc2ccc(Cl)cc2)cc1,inconclusive: -48.7

# Looked up above.
# C[C@@H]1CCCCO[C@@H](CN(C)C)[C@@H](C)CN([C@@H](C)CO)C(=O)c2cc(NC(=O)Nc3cccc4ccccc34)ccc2O1 – activity change, negative = inhibition: inconclusive: 9.72 [at 26 µM]
# CCOC(=O)c1c(C)[nH]c(C)c1S(=O)(=O)NCCN1CCN(c2ccccc2F)CC1 – activity change, negative = inhibition: inactive: -15.8
